What was measured:
[1] = system: vimentin and tubulin filaments in a fixed mammalian PtK2 cell; test: Two-colour confocal/STED microscopy, FIG. 1 and 2; parameters: species or system Potorous tridactylus; settings: single antibodies in the background, FIG. 2; for STED resolution: STED at 590 nm
antibodies = test: Degree of labeling of antibody conjugates; settings: antibody conjugate obtained from the dye or its NHS ester
[2] = system: tubulin filaments in a fixed PtK2 cell; test: Confocal/STED microscopy of tubulin filaments, FIG. 3; parameters: species or system Potorous tridactylus
[3] = system: vimentin filaments in a fixed PtK2 cell; test: Confocal/STED microscopy of vimentin filaments, FIG. 4; parameters: species or system Potorous tridactylus

Structure (SMILES)	Confocal resolution [1] [nm]	STED resolution [1]	degree of labeling (DOL) of the conjugate (antibodies)	further results
O=C1OC2(c3cc(F)c(O)cc3Oc3cc(O)c(F)cc32)c2ccccc21 [Oregon Green™ 488, reference compound]	~200	~50 nm	–	–
CC1(C)C=C(CS(=O)(=O)O)c2cc3cc(-c4ccncc4)c(=O)oc3cc2N1CCCC(=O)ON1C(=O)CCC1=O [Compound 20-NHS, reference compound]	–	–	2.7	–
CC1(C)C=C(COP(=O)(O)O)c2cc3cc(-c4ccncc4)c(=O)oc3cc2N1CCCC(=O)O [Compound 11]	–	ca. 50 nm	–	–
CC1(C)C=C(COP(=O)(O)O)c2cc3cc(-c4ccncc4)c(=O)oc3cc2N1CCCC(=O)ON1C(=O)CCC1=O [Compound 12]	~200	~50 nm	2.6	–
CN(CCCC(=O)O)C(=O)c1c(F)c(F)c(F)c(F)c1C1=c2cc3c4c(c2Oc2c1cc1c5c2CCCN5C(C)(C)C=C1COP(=O)(O)O)CCC[N+]=4C(C)(C)C=C3COP(=O)([O-])O [Compound 26-H]	–	–	~2.5	–
CN(CCCC(=O)ON1C(=O)CCC1=O)C(=O)c1c(F)c(F)c(F)c(F)c1C1=c2cc3c4c(c2Oc2c1cc1c5c2CCCN5C(C)(C)C=C1COP(=O)(O)O)CCC[N+]=4C(C)(C)C=C3COP(=O)([O-])O [Compound 26-NHS]	–	–	–	optical resolution, confocal ([2]; FIG. 3A inset left, excitation 635 nm): ~300 nm; optical resolution, STED ([2]; FIG. 3A inset right, pulsed STED at 750 nm, ~350 mW): 30 nm; optical resolution, confocal ([3]; excitation 647±5 nm): 250 nm; optical resolution, STED ([3]; pulsed STED at 745±2 nm, ~30 mW): 50 nm

— patent US9164086B2, “Fluorescent dyes with phosphorylated hydroxymethyl groups and their use in light microscopy and imaging techniques” (Max-Planck-Gesellschaft zur Foerderung der Wissenschaften …, priority 2011, dated 2015)
